Experimental data: paper PMC9599603
Results are given in words; binding and its absence hold for the method and conditions named. In cells and extracts the contact can be indirect. Some results given as binding are weak or reduced against the parent protein; the word gives no strength. For part of these data: Tags and fused reporters may be left off the sequences shown.

The chains behind the UniProt entries cited, without tags or fusion partners.
UniProt Q8IC05: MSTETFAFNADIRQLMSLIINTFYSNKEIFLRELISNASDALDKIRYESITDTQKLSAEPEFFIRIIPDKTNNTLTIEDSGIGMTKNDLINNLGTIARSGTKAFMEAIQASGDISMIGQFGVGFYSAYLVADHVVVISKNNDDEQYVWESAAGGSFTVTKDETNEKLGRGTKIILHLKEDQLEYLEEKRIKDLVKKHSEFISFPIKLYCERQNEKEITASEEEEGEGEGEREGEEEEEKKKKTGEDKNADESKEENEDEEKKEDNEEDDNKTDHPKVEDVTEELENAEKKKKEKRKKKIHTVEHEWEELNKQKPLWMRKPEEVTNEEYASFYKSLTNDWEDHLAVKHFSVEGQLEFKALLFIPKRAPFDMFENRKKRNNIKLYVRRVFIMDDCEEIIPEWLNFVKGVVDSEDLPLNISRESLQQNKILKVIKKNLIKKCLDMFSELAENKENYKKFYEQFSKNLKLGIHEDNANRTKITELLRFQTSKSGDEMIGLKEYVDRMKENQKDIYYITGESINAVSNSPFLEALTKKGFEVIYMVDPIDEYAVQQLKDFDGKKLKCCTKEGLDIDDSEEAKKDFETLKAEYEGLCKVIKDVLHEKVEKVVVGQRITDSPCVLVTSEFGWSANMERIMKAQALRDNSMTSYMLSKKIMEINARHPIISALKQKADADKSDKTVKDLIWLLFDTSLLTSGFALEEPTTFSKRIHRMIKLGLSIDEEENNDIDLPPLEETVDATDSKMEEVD

How the values were obtained:
[1] = molecular target: T1, PfSir2A, endogenous (P. falciparum (endogenous in 3D7 parasites)) (UniProt Q8IE47); experiment: co-IP; schizont stage parasite lysate; anti-Hsp90 or anti-PfSir2A cross-linked to Protein A/G Plus Agarose beads (Pierce Crosslink Immunoprecipitation Kit); control IgG; Western blot
T1 sequence: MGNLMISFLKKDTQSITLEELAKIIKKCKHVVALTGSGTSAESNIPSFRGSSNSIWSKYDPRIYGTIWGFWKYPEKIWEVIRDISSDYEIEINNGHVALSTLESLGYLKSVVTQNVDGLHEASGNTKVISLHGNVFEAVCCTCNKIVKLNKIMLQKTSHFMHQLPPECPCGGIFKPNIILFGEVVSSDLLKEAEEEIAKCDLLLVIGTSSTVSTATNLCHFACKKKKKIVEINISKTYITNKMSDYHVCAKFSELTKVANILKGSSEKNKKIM

[2] = molecular target: His6-tagged PfHsp90 (P. falciparum) (UniProt Q8IC05); experiment: pull-down; copurification: bacterial lysates with His6-PfHsp90 and GST-PfSir2A (or GST alone) combined, applied to a Ni-NTA column, eluted with 250 mM imidazole, Western blot with anti-His6 and anti-GST
[3] = molecular target: PfHsp90 (PF3D7_0708400), endogenous (P. falciparum (endogenous in 3D7 parasites)) (UniProt Q8IC05); experiment: co-IP; schizont stage parasite lysate; anti-Hsp90 or anti-PfSir2A cross-linked to Protein A/G Plus Agarose beads (Pierce Crosslink Immunoprecipitation Kit); control IgG; Western blot

Molecule: PfHsp90 (PF3D7_0708400), endogenous (from UniProt Q8IC05 1-745)
- binding [1]: binds

B1: Glutathione S-Transferase (GST)-tagged PfSir2A (protein, UniProt Q8IE47 1-273)
chain: T1 sequence
- binding [2]: binds

B2: PfSir2A, endogenous (protein, UniProt Q8IE47 1-273)
chain: T1 sequence
- binding [3]: binds
